Results as given in patent US7521535B2 (priority 2006, dated 2009).
Where a sequence shows no end group, the ends are not given.

Assay: peptide made by a vendor
Settings: whole synthesis, RP-HPLC

## LRVRRTLQCSCRRVCRNTCSCIRLSRSTYAS
  final HPLC purity: >95%
